Data: patent US20020076736A1, “Methods of affecting laminin 5 processing” (priority 2000, published 2002)
No constants are given. Whether binding was seen depends on the method and setting. Some entries that bind do so weakly or less than the wild type.

The chains behind the UniProt entries cited, without tags or fusion partners. Where a name states a change or a piece, a line headed by the entry shows the natural chain unless it says otherwise.
UniProt Q13751: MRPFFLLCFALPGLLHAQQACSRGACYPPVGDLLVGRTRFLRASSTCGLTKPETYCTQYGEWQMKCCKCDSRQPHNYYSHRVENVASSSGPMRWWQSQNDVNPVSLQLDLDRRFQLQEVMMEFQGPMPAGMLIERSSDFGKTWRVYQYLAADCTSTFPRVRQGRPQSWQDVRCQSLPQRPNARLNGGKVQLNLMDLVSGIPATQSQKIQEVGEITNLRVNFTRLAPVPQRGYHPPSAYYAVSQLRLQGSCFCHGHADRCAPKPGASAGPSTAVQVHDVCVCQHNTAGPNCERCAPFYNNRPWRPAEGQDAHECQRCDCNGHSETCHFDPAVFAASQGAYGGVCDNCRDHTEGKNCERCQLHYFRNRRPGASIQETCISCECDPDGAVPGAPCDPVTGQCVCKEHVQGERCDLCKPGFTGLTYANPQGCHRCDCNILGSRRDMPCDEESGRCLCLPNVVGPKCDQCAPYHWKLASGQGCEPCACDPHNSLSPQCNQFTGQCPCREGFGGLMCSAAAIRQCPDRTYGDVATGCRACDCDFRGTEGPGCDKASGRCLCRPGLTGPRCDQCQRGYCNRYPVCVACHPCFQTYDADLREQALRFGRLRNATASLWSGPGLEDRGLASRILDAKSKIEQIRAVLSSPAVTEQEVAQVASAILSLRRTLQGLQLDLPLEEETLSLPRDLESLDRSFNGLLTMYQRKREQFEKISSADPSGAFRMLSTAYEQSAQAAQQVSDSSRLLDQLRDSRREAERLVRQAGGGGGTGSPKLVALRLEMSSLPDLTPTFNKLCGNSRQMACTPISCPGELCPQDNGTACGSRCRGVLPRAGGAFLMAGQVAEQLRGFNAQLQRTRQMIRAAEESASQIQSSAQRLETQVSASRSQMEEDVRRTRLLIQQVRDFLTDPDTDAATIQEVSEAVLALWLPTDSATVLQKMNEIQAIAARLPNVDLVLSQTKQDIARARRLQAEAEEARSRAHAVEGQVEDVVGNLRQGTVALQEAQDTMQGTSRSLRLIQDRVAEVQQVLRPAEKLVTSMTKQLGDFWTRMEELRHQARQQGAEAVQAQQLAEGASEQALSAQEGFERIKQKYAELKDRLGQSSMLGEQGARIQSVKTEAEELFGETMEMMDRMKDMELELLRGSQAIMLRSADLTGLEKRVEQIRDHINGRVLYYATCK
UniProt Q13753: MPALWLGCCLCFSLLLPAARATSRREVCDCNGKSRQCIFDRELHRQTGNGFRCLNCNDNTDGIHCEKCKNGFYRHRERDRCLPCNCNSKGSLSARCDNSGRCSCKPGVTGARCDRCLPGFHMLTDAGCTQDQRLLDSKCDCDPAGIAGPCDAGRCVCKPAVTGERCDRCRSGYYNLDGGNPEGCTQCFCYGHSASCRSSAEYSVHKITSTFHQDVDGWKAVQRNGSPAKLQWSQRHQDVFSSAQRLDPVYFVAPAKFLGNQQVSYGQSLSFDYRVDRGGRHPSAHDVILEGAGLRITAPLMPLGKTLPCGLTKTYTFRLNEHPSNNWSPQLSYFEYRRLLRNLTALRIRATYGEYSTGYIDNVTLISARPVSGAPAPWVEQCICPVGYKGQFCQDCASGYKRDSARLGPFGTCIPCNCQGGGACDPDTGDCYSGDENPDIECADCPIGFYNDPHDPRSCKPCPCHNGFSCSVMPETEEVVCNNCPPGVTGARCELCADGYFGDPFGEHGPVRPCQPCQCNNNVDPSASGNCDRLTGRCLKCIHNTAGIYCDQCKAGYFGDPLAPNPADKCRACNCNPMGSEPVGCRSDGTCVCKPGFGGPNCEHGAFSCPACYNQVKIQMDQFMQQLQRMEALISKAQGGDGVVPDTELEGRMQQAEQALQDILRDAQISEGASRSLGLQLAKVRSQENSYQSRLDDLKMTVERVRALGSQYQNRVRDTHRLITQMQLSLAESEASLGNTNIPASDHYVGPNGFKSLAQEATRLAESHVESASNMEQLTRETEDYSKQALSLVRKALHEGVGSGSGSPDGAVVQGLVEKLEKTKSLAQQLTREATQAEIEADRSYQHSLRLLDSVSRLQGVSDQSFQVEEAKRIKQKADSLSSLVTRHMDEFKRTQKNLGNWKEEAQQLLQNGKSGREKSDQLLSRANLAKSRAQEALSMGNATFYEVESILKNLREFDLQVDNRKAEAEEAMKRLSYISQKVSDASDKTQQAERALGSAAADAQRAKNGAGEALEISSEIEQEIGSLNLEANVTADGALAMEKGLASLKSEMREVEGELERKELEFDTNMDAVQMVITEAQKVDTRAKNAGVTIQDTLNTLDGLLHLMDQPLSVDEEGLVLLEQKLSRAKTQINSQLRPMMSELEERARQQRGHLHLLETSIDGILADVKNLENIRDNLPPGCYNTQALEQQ
UniProt P23229: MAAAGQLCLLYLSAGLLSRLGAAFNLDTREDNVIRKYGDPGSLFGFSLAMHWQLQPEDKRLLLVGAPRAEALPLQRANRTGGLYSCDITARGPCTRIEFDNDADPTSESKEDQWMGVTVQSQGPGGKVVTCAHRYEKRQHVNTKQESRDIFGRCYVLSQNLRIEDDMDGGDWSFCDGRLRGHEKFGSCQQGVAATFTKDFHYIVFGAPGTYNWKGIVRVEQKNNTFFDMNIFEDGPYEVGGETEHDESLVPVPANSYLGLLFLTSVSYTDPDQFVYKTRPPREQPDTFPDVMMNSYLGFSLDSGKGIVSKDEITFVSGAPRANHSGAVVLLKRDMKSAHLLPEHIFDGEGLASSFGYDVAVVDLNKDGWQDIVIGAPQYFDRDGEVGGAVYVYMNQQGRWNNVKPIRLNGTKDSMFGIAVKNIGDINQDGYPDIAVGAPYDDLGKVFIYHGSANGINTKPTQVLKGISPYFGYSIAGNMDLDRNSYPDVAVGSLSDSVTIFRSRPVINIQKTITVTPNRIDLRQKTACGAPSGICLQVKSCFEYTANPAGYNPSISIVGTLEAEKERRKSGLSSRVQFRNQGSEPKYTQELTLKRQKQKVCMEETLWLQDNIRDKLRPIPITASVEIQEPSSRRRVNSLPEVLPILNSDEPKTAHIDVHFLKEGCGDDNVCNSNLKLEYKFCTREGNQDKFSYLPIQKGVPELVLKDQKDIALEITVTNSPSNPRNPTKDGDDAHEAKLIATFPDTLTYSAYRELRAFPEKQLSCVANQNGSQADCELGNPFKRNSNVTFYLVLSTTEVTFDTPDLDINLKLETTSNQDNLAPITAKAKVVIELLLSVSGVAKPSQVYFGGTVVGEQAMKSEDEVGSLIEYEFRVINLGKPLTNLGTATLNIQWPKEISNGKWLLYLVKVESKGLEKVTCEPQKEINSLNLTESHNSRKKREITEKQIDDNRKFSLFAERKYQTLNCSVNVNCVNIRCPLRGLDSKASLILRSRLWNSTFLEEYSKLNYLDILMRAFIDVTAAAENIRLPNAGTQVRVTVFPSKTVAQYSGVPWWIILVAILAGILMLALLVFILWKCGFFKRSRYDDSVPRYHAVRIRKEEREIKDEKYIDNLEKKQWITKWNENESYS

Target: processed human laminin 5 (α3 chain of 165 kDa, γ2 chain of 105 kDa) (human) (UniProt Q16787+Q13751+Q13753)
Test: antibody blocking of keratinocyte attachment to laminin 5 matrix

Question: How did the binding turn out when “α6β4 integrin (from UniProt P23229 24-1130; P16144 28-1822) (receptor)” was run?
Answer: binds
